Results reported in article PMC5042399.
These are yes or no findings as the source states them, for the method shown. Binding seen in cells or lysates may run through a third protein. Some entries that bind do so weakly or less than the wild type.

By UniProt entry, the sequences of proteins in these tests, tags left out. Residues count along the entry.
UniProt P11387: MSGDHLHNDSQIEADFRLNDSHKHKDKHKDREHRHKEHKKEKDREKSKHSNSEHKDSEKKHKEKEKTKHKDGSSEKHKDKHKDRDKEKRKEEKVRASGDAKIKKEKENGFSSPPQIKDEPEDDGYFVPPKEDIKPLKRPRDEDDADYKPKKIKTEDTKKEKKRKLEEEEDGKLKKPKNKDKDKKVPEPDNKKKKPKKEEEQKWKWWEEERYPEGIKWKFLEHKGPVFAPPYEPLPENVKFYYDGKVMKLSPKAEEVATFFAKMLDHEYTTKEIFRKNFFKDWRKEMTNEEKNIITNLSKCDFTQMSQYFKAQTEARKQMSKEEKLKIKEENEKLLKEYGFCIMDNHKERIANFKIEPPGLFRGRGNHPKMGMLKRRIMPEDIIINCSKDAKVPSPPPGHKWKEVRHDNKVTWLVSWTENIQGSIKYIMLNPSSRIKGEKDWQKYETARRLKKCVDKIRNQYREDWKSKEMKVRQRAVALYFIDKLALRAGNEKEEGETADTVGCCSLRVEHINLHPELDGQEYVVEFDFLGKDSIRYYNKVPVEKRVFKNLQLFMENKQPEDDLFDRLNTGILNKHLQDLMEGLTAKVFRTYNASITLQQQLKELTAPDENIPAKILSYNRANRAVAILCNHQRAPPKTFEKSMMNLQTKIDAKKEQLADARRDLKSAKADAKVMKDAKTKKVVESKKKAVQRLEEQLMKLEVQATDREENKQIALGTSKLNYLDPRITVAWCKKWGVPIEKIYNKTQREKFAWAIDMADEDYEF
BLM C-terminus (amino acids 997–1417) (P54132, residues 997-1417): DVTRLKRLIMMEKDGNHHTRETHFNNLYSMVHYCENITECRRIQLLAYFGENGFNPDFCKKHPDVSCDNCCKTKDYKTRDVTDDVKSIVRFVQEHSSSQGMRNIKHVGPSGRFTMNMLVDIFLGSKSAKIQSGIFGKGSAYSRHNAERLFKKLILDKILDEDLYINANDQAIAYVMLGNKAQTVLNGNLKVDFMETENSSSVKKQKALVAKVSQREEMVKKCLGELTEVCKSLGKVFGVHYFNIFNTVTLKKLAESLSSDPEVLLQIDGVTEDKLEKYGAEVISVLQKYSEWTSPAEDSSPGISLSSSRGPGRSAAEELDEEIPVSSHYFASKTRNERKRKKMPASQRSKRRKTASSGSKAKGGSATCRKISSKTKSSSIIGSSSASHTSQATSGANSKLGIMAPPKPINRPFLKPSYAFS
BLM fragment 997–1349 (P54132, residues 997-1349): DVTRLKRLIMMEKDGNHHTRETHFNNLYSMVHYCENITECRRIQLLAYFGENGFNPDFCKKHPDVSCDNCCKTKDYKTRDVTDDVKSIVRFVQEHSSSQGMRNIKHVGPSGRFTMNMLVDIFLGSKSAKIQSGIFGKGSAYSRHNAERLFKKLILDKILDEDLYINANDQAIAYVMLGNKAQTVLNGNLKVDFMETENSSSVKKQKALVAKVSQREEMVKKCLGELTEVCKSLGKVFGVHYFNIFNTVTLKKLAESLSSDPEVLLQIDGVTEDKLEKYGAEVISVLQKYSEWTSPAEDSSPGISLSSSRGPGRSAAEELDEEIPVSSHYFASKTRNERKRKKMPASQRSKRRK
BLM fragment 1120–1417 (P54132, residues 1120-1417): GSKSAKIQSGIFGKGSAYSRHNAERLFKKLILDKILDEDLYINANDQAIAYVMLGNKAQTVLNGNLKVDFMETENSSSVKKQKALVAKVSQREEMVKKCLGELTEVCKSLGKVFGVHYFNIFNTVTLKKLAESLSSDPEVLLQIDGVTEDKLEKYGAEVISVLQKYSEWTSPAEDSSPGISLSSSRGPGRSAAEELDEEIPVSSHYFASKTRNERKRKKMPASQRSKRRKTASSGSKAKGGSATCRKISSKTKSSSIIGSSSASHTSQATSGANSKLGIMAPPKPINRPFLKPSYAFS

Each substance was assayed against DNA topoisomerase I (TOP1), full-length recombinant (UniProt P11387) (assay: co-IP; 35S-methionine-labelled IVTT BLM fragments incubated with purified full-length recombinant TOP1, then α-TOP1 or isotype control antibody, 4 °C, 3 h; 10 mM Tris-HCl pH 7.5, 150 mM NaCl, 1 mM EDTA, 10% glycerol, 1 mM DTT, 0.1% Tween-20, 0.1 mg/ml BSA; precipitated with Dynabeads Protein G; phosphor imaging, % relative IP against 997–1417; only the target purified).

| binding | Substance |
| --- | --- |
| binds | BLM C-terminus (amino acids 997–1417) (from UniProt P54132 997-1417) (domain or fragment) |
| binds | BLM fragment 997–1349 (from UniProt P54132 997-1349) (domain or fragment) |
| binds | BLM fragment 1120–1417 (from UniProt P54132 1120-1417) (domain or fragment) |
